{"source": "PubChem BioAssay AID1259308 – NCATS | 2017", "assay": "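Knock-downs that increase output of a recombinant reporter protein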 (primary screen)", "cells": "human HEK293 embryonic kidney cells stably expressing firefly luciferase (HEK-CMV-Luc2-Hygro)", "reagents": "single siRNA against human genes, 0.8 pmol siRNA per well", "timing": "72 h", "read-out": "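Luciferase light (ONE-Glo) measured on one replicate plate set and viability (CellTiter-Glo) on the other, scaled to a negative control siRNA, with robust z-scores and luciferase per cell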", "direction": "total luciferase, z-score: higher = more reporter protein produced", "active means": "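Active when the median/MAD z-score for overall luciferase is greater than 3; a gene was taken forward for validation with new siRNAs if at least two of its three siRNAs passed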", "meaning of the calls": "active = raised luciferase; inactive = no rise", "note": "In all, the deposit lists about 59,000 reagents; shown is an unselected part. In the full data, about 1,510 (2.6%) are marked active. 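Calls use total luciferase alone and ignore viability, so some active siRNAs may act by altering cell number.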 Entries without a mark were called inactive. Reagents against one gene are numbered here. Further read-outs or replicates are left out here."}
{"gene": "MEF2C (myocyte enhancer factor 2C)", "reagent": 1, "total luciferase, z-score": -0.244}
{"gene": "MEF2C (myocyte enhancer factor 2C)", "reagent": 2, "total luciferase, z-score": -1.02}
{"gene": "MEF2C (myocyte enhancer factor 2C)", "reagent": 3, "total luciferase, z-score": -0.317}
{"gene": "PHF7 (PHD finger protein 7)", "reagent": 1, "total luciferase, z-score": -1.26}
{"gene": "PHF7 (PHD finger protein 7)", "reagent": 2, "total luciferase, z-score": -0.411}
{"gene": "PHF7 (PHD finger protein 7)", "reagent": 3, "total luciferase, z-score": 0.715}
{"gene": "UTP20 (UTP20 small subunit processome component)", "reagent": 1, "total luciferase, z-score": -1.78}
{"gene": "UTP20 (UTP20 small subunit processome component)", "reagent": 2, "total luciferase, z-score": -1.65}
{"gene": "UTP20 (UTP20 small subunit processome component)", "reagent": 3, "total luciferase, z-score": -1.56}
{"gene": "EDA (ectodysplasin A)", "reagent": 1, "total luciferase, z-score": 1.6}
{"gene": "EDA (ectodysplasin A)", "reagent": 2, "total luciferase, z-score": -1.18}
{"gene": "EDA (ectodysplasin A)", "reagent": 3, "total luciferase, z-score": -0.0434}
{"gene": "GMIP (GEM interacting protein)", "reagent": 1, "total luciferase, z-score": 0.228}
{"gene": "GMIP (GEM interacting protein)", "reagent": 2, "total luciferase, z-score": 0.0642}
{"gene": "GMIP (GEM interacting protein)", "reagent": 3, "total luciferase, z-score": -0.562}
{"gene": "AHRR (aryl hydrocarbon receptor repressor)", "reagent": 1, "total luciferase, z-score": -0.512}
{"gene": "AHRR (aryl hydrocarbon receptor repressor)", "reagent": 2, "total luciferase, z-score": "4.72 (active)"}
{"gene": "AHRR (aryl hydrocarbon receptor repressor)", "reagent": 3, "total luciferase, z-score": -1.08}
{"gene": "LOC728877 (Zn regulated GTPase metalloprotein activator 1C pseudogene)", "reagent": 1, "total luciferase, z-score": -0.43}
{"gene": "LOC728877 (Zn regulated GTPase metalloprotein activator 1C pseudogene)", "reagent": 2, "total luciferase, z-score": 0.533}
{"gene": "LOC728877 (Zn regulated GTPase metalloprotein activator 1C pseudogene)", "reagent": 3, "total luciferase, z-score": -0.665}
{"gene": "MVD (mevalonate diphosphate decarboxylase)", "reagent": 1, "total luciferase, z-score": -0.55}
{"gene": "MVD (mevalonate diphosphate decarboxylase)", "reagent": 2, "total luciferase, z-score": 0.716}
{"gene": "MVD (mevalonate diphosphate decarboxylase)", "reagent": 3, "total luciferase, z-score": 1.05}
{"gene": "CA8 (carbonic anhydrase 8 (inactive))", "reagent": 1, "total luciferase, z-score": 0.981}
{"gene": "CA8 (carbonic anhydrase 8 (inactive))", "reagent": 2, "total luciferase, z-score": -0.139}
{"gene": "CA8 (carbonic anhydrase 8 (inactive))", "reagent": 3, "total luciferase, z-score": 1.28}
{"gene": "OR2A1 (olfactory receptor family 2 subfamily A member 1)", "reagent": 1, "total luciferase, z-score": -0.502}
{"gene": "OR2A1 (olfactory receptor family 2 subfamily A member 1)", "reagent": 2, "total luciferase, z-score": -2.55}
{"gene": "OR2A1 (olfactory receptor family 2 subfamily A member 1)", "reagent": 3, "total luciferase, z-score": 0.123}
{"gene": "SLC7A5", "reagent": 1, "total luciferase, z-score": -2.22}
{"gene": "SLC7A5", "reagent": 2, "total luciferase, z-score": 2.27}
{"gene": "SLC7A5", "reagent": 3, "total luciferase, z-score": -0.763}
{"gene": "SUGT1P4-STRA6LP-CCDC180 (SUGT1P4-STRA6LP-CCDC180 readthrough)", "reagent": 1, "total luciferase, z-score": 0.609}
{"gene": "SUGT1P4-STRA6LP-CCDC180 (SUGT1P4-STRA6LP-CCDC180 readthrough)", "reagent": 2, "total luciferase, z-score": -0.783}
{"gene": "SUGT1P4-STRA6LP-CCDC180 (SUGT1P4-STRA6LP-CCDC180 readthrough)", "reagent": 3, "total luciferase, z-score": 1.86}
{"gene": "SNHG29 (small nucleolar RNA host gene 29)", "reagent": 1, "total luciferase, z-score": -0.182}
{"gene": "SNHG29 (small nucleolar RNA host gene 29)", "reagent": 2, "total luciferase, z-score": 1.66}
{"gene": "SNHG29 (small nucleolar RNA host gene 29)", "reagent": 3, "total luciferase, z-score": 0.304}
{"gene": "LRRC34 (leucine rich repeat containing 34)", "reagent": 1, "total luciferase, z-score": -0.0797}
{"gene": "LRRC34 (leucine rich repeat containing 34)", "reagent": 2, "total luciferase, z-score": 0.498}
{"gene": "LRRC34 (leucine rich repeat containing 34)", "reagent": 3, "total luciferase, z-score": -0.195}

A few values from the entries so far:
For “total luciferase, z-score”, MVD (mevalonate diphosphate decarboxylase) #1 is entered as -0.55
Value for SLC7A5 #1 under “total luciferase, z-score”: -2.22
For “total luciferase, z-score”, UTP20 (UTP20 small subunit processome component) #1 has -1.78
